From PMC4629154 come the findings set out here.

The chains behind the UniProt entries cited, without tags or fusion partners. Where a name states a change or a piece, a line headed by the entry shows the natural chain unless it says otherwise.
UniProt P63158: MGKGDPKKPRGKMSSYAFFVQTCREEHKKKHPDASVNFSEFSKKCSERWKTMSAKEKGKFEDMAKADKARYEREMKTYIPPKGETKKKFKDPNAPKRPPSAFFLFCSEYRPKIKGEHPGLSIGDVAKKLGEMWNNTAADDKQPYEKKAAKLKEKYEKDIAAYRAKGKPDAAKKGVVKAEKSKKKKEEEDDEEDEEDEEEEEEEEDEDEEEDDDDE
UniProt O14980: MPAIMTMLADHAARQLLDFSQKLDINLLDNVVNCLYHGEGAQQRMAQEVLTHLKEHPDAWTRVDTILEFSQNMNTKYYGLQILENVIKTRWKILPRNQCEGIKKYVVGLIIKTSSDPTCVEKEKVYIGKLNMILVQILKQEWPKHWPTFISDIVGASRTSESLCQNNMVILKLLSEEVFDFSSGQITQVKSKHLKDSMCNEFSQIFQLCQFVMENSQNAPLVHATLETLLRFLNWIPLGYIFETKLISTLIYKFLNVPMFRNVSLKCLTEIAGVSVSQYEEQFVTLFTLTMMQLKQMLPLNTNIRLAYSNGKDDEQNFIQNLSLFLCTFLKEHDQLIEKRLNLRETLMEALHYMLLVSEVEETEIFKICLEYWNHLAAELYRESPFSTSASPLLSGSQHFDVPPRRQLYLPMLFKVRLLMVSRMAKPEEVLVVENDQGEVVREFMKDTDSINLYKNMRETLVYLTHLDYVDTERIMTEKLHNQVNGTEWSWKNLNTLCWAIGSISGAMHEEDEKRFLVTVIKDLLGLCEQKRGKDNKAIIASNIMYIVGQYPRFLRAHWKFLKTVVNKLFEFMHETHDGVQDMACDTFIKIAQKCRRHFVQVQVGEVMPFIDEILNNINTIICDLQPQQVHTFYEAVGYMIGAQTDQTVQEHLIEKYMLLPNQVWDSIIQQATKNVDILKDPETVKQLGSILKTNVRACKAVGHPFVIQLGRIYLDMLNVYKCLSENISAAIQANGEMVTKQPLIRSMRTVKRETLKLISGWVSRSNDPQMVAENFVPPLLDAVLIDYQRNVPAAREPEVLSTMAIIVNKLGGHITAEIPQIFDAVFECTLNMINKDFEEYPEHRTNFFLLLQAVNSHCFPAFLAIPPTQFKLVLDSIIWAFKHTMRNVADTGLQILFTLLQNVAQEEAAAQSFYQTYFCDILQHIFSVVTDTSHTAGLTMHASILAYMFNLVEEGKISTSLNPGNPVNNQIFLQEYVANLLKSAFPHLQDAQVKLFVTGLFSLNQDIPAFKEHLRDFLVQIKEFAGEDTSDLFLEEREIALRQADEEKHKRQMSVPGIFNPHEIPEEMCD

These are yes or no findings as the source states them, for the method shown. In cells and extracts the contact can be indirect. A result given as binding can be weak or reduced; the word gives no strength.

In the experiment the target is Flag-HMGB1 K282930Q (hyper-acetylation mutant) (mouse) (UniProt P63158). The experiment in a line: co-IP; HEK293T cells co-transfected for 48 h; whole-cell lysates (PRO-PREP), pre-cleared; anti-Flag antibody (1 ug) overnight at 4 °C, protein G Sepharose 4 h; immunoblot; in some panels cells treated with LPS, TNF-α, Poly (I:C), IFN-γ, resveratrol or sirtinol, or co-transfected with HA-PCAF.

“HA-tagged chromosome region maintenance 1 (CRM1) (from UniProt O14980 1-1071)”: the binding entry is reported as “binds”.
